According to publication PMC4598080:

Biological target: Rpl4.N104 fused to the C-terminal Gal4 DNA-binding domain (S. cerevisiae)
Assay: two-hybrid; Rpl4a variants fused to G4BD (bait) and Acl4 fused to G4AD (prey) in reporter strain PJ69-4A; growth on SC-His-Leu-Trp (HIS3) and SC-Ade-Leu-Trp (ADE2) plates, 3 d at 30°C

B1: full-length Acl4 fused to the C-terminal Gal4 activation domain (protein, UniProt Q03771 1-387)
chain: MSELEATIRQAKEALAENNAKKALKILKPFKSSLKKENANNVILNEVFADAYLDNGQVEKAYPILARACELDPEGQVGGPDKFFTMGQIMGGQDGVSIITRGIMNISNTGGEMLTNVQVEKIVGGLLSVIEIWMTDLCMEPNAEEQCEELIQKAMELTEGKSPETWSTLGSIKISQQKFGEAYEAFSQAWNFFELKKQEIGSGINENGDTTQKAGLQSEYVDLLQPLLSLTKMCLEVGAYEVALKVIAAVRDIDEDNIEGYYLEGFTYYLMSKLEIFKLNNPEVSLRPENIYEFNQLIQEVPLDLSHEPISQLIYDSRLALSFALQAGVNADSKDEIVQELLGGANALLQEIGGPLDPSELTQIKKGDLVNENEDLEELDIEEEYSD
For B1, the binding was “no binding”.

Results are given in words; binding and its absence hold for the method and conditions named. Tags and fused reporters may be left off the sequences shown.
